## Results of single-concentration screens

Source: ChEMBL document CHEMBL3988442, “University of Dundee, Small-Polar-MMV Screening Library” (2021).

Mtb cholesterol medium: 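Whole-cell growth test on Mycobacterium tuberculosis, read after 4 days in a medium based on cholesterol and the lipid DPPC; the read-out is not stated. Tested at 50 µM. The record gives no direction; compounds that gave an IC50 in retests scored well above the rest, so higher reads as more growth inhibition. About 69,000 compounds were tested under these conditions; 0.54% (about 370) showed 50% or more at least once.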
Mtb glucose medium: 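Growth of Mycobacterium tuberculosis over 3 days (7H9 medium with glucose and tyloxapol); the read-out is not stated. Compounds at 50 µM. The record gives no direction; compounds that gave an IC50 in retests scored well above the rest, so higher reads as more growth inhibition. Size under these conditions: about 69,000 compounds, about 760 of them at 50% or above in at least one test.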

The filed quantity is “Percent Effect” (%). The record does not define 0% and 100%; most values in the screen are far below 50% and negative numbers occur (in some assays of this library far below -100). The compounds are a random part of those screened. Two or more numbers in one place are separate tests of the same structure; such repeats can differ widely.

{"compound": "[H][C@]12CC[C@]([H])(CN(Cc3ccccc3C#N)C1)N(CC1CCC1)C2=O", "Mtb cholesterol medium": "3.754 and 0.3769", "Mtb glucose medium": 19.58}
{"compound": "CN(CC(=O)N1CCc2[nH]c3ccccc3c2C1)CC1OCCO1", "Mtb cholesterol medium": -27.68, "Mtb glucose medium": -72.46}
{"compound": "Cc1nc2cc(O)nn2c(C)c1CCC(=O)NCCc1ccccc1", "Mtb cholesterol medium": -36.81, "Mtb glucose medium": 18.67}
{"compound": "COc1ccc(C2=Nn3c(CCN)nnc3-c3ccccc3C2)cc1", "Mtb cholesterol medium": -0.6264, "Mtb glucose medium": 16.93}
{"compound": "COCCn1cc(-c2cc(C(=O)N3CCCC3)c3ccccn23)nc1C", "Mtb cholesterol medium": -13.8, "Mtb glucose medium": "-46.92 and -13.57"}
{"compound": "CCn1ccnc1CN1CCCN(C(=O)C2(C#N)CCCCC2)CC1", "Mtb cholesterol medium": 14.91, "Mtb glucose medium": 13.3}
{"compound": "CN(Cc1ccccc1)CC(C)(C)NC(=O)c1ccc(C(N)=O)cn1", "Mtb cholesterol medium": -2.208, "Mtb glucose medium": 7.044}
{"compound": "Cc1cc(Nc2cnccn2)cc(C2CCCN2)n1", "stereo": "stereo not drawn", "Mtb cholesterol medium": "-30.38 and 6.362", "Mtb glucose medium": 0.6474}
{"compound": "CCn1nc(C)c(NC(=O)C(C)C)c1C", "Mtb cholesterol medium": -16.19, "Mtb glucose medium": -12.25}
{"compound": "CC(C)CCn1nc2ccc(S(=O)(=O)N3CCOCC3)cn2c1=O", "Mtb cholesterol medium": 11.76, "Mtb glucose medium": 22.61}
{"compound": "COc1ccccc1CC(=O)N1CC[C@H](O)[C@]2(CCCO2)C1", "Mtb cholesterol medium": -4.856, "Mtb glucose medium": -5.213}
{"compound": "COCCN(Cc1cnn(C)c1)C(=O)C1COc2c(cccc2OC)C1", "stereo": "stereo not drawn", "Mtb cholesterol medium": 11.89, "Mtb glucose medium": "5.114 and 1.126"}
{"compound": "Cc1ccc(CNC(=O)c2nc3c(o2)CN(c2ncccn2)C3)o1", "Mtb cholesterol medium": 7.942, "Mtb glucose medium": "5.031 and -39.52"}
{"compound": "CS(=O)(=O)NC[C@H]1OC[C@@H](NC2CCC(F)(F)CC2)[C@@H]1O", "Mtb cholesterol medium": -15.3, "Mtb glucose medium": "-1.801 and -10.06"}
{"compound": "Cc1cc(NS(=O)(=O)c2ccc(Cl)s2)ccc1-n1cccc1C(=O)O", "Mtb cholesterol medium": "1.938 and -6.149", "Mtb glucose medium": -9.594}
{"compound": "COc1c(C)cnc(CN(C)C(=O)c2ccc(C3CCCO3)s2)c1C", "stereo": "stereo not drawn", "Mtb cholesterol medium": -25.36, "Mtb glucose medium": 28.21}
{"compound": "Cc1[nH]ncc1C(=O)NCC1CCC2(CC1)OCCO2", "Mtb cholesterol medium": 9.829, "Mtb glucose medium": "12.41 and -5.693"}
{"compound": "CCC(NC(=O)Nc1ccc(OC)c(C)c1)c1ccncc1", "stereo": "stereo not drawn", "Mtb cholesterol medium": 30.41, "Mtb glucose medium": 42.9}
{"compound": "CC(C)N(CCO)C(=O)C1CCC(=O)N(CCc2cccc(F)c2)C1", "stereo": "stereo not drawn", "Mtb cholesterol medium": 3.427, "Mtb glucose medium": 7.497}
{"compound": "CCCS(=O)(=O)N1CCC2(CC(C(=O)NCc3cccnc3)=NO2)C1", "stereo": "stereo not drawn", "Mtb cholesterol medium": -5.036, "Mtb glucose medium": "18.55 and -0.9259"}
{"compound": "[H][C@@]12CCN(Cc3ccoc3)C[C@]1([H])[C@@H](CNC(=O)N(C)C)OC2", "Mtb cholesterol medium": -53.61, "Mtb glucose medium": -83.65}
{"compound": "CCC(Nc1ccc(CCN2CCOCC2)cc1)C(N)=O", "stereo": "stereo not drawn", "Mtb cholesterol medium": 7.913, "Mtb glucose medium": -9.627}
{"compound": "CCN1CCCC(C)(C(=O)NCc2nncn2CCc2ccccc2)C1", "stereo": "stereo not drawn", "Mtb cholesterol medium": -22.45, "Mtb glucose medium": -15.87}

For reference, 3 entries once more:

{"compound": "CCN1CCCC(C)(C(=O)NCc2nncn2CCc2ccccc2)C1", "stereo": "stereo not drawn", "Mtb cholesterol medium": -22.45, "Mtb glucose medium": -15.87}
{"compound": "COc1ccccc1CC(=O)N1CC[C@H](O)[C@]2(CCCO2)C1", "Mtb cholesterol medium": -4.856, "Mtb glucose medium": -5.213}
{"compound": "CCC(NC(=O)Nc1ccc(OC)c(C)c1)c1ccncc1", "stereo": "stereo not drawn", "Mtb cholesterol medium": 30.41, "Mtb glucose medium": 42.9}